How the values were obtained:
mice = conditions: mouse, in vivo, sc
mouse [1] = conditions: in vivo, po; cited from earlier work
mouse [2] = conditions: in vivo, sc; cited from earlier work

Compound: CN1CC[C@]23c4c5ccc(O)c4O[C@H]2[C@@H](O)C=C[C@H]3[C@H]1C5 [Morphine]
- EC50 in tail flick assay (mice): 2.5 mg/kg
- EC50 for analgesic activity, acetic acid writhing (mouse [1]): 0.33 mg/kg
- EC50 for analgesic activity, tail flick (mouse [2]): 1.5 mg/kg

Source: article PMC5809328 (Neuropharmacology, 2017)
